From PubChem BioAssay record AID1159506 (NCATS, 2015).

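Genome-wide siRNA knockdown in TC32 Ewing sarcoma cells, comparing luciferase light from an NR0B1-promoter reporter with a CMV-promoter reporter 48 hours after transfection. Each siRNA was applied at 20 nM. A z-score of the log NR0B1-over-CMV signal, less the median of siRNAs with the same seed; more negative means a stronger specific loss of the NR0B1 reporter.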

This is part of the screen; most of the strongest results are not listed here. Sequences are the guide (antisense) strand, without overhang.

siRNA | target gene | seed-corrected z-score
UUUAGUCAUAUGUUUACGG | ZBTB11 | -0.8902
AUUGUCAGCCGUAAAGAGC | IHH | -1.576
UAUGGAACAAUUGAUGUUC | HMGCL | -0.8823
UUACUCAUAAAUAUCAUGU | FGF19 | -0.01931
AUAUCCAAUAUAUCUGUGC | TMED5 | 0.8689
UGUUAGAAAGCAUUUCUGC | MAPK1 | 0.06349
UUCUUGACCAUCUCAUUGG | CDO1 | -0.6605
UAUCUUGCCCUCGUGGUUC | C6orf120 | 0.6191
AUAAGUCACGUCUCCCACC | LY6G6D | -0.7197
UUUGAGAUGACAAGUGAGG | C11orf21 | 1.086
CCGCUUUUUCUUGUCGUAG | RPL13AP20 | -0.9091
UUCCGCUUCAUGCUUCGCC | VDR | -1.201
UUAGUCAGUUGUAAGCACC | TLR6 | 0.8291
UUCGAGGUAGAAAAGAGUC | MYO1A | -0.5132
UUUCGAAGAAUCGGCAUGG | CXCL12 | 0.1045
UCAGAACACACUCUUUCCC | HSD11B1L | 1.583
UAUGUGCAAACAUCCUGGG | TSHB | 1.215
UGUUGUAAGAGACAGUGCG | PDE12 | 0.9038
UACCGCAAAAGGACGUAUC | FARSB | 0.52
UGUGAAAUCAACUCGCUCA | ATF5 | 0.8107
UAUCCGAUCCUAGCAGCUU | IL23A | 0.7154
UUUCUGUCUGGGACACUCG | SH2D1A | 0.4956
UAUGAGCCCUGAUAUGAGC | FLJ32154 | -0.3434
UCUGGAAGUAACGAAGUUC | RPL22L1 | -0.265
UUUUGUUAGACAGGAUUUG | MYH7 | 0.8291
UCCAUGACUAUUGAACUGG | TAF7L | -0.7449
UCCUCGAUCACUUUGUUCC | HMGB1P40 | -0.2514
ACUGCGCAGACAACAAAGC | LOC100128762 | 0.9463
AAGAUCUUAAUUAAGGUGC | ITGA9 | -0.4426
AGACUUGCUAGACUAAAGC | NIPA2 | 0.1153
UUACUGUCAAGUUUAUCAG | LOC285423 | -0.9844
UUAUCAUGUAAAAUCUGCC | NAP1L3 | 0.8411
UCACCAACAAUCGUGAAUG | DEPTOR | 0.23
AAUGUUGAAAGGACAGGAC | FBXO40 | 1.01
UCUUUUAGAAAUGACGAUG | CDCP1 | 0.6616
UGAUUUGACCUUGAGCUUC | HSPBP1 | 1.69
UCACAAUUAUGAUGGAGGC | ASB12 | -0.5444
UGAAUUAAGUAAUACUUCC | NCOA4 | -0.9401
AAGGCGAUAAAGUAUGCUG | DICER1 | -1.257

3 of the entries, repeated:

| siRNA | target gene | seed-corrected z-score |
|---|---|---|
| `UUUGAGAUGACAAGUGAGG` | C11orf21 | 1.086 |
| `AAGGCGAUAAAGUAUGCUG` | DICER1 | -1.257 |
| `UACCGCAAAAGGACGUAUC` | FARSB | 0.52 |